Percent effect of library compounds

The chains behind the UniProt entries cited, without tags or fusion partners. Residues count along the entry.
UniProt A4I591, 1-473: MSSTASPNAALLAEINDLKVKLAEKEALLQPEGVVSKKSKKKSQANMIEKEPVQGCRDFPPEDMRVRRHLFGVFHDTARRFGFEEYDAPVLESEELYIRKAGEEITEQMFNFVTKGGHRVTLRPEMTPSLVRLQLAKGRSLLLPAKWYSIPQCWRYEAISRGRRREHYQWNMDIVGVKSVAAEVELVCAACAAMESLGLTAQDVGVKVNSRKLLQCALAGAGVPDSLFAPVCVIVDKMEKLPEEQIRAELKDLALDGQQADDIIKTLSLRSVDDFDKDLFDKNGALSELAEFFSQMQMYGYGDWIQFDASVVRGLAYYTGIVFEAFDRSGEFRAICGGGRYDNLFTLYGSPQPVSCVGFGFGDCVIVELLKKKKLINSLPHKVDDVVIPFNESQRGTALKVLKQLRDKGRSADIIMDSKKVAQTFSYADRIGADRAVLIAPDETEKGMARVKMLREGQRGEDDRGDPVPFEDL
UniProt P9WPC5, whole entry: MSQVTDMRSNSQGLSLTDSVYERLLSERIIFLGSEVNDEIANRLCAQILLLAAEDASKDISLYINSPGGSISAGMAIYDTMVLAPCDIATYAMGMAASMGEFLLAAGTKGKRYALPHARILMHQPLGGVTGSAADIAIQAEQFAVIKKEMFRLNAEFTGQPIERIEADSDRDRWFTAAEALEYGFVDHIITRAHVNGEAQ
UniProt P9WPC3, whole entry partner: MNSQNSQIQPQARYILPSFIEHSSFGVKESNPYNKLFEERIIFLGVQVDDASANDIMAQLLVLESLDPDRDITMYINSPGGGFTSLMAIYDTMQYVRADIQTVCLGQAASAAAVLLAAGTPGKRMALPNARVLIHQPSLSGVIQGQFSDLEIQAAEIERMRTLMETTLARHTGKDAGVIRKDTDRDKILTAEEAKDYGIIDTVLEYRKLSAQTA

Measurements from “University of Dundee, Small-Polar-MMV Screening Library” (2021), ChEMBL document CHEMBL3988442.

LiHisRS: 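Histidine-tRNA ligase, Leishmania infantum (UniProt A4I591). Enzyme assay of histidyl-tRNA synthetase; the read-out is not stated. Compounds at 30 µM. Higher reads as stronger inhibition (inferred: compounds with an IC50 in retests scored well above the rest). The assay is labelled LdHisRS but filed under L. infantum. About 69,000 compounds were tested under these conditions; 0.6% (about 410) showed 50% or more at least once.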
Toxoplasma: 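Assay of Toxoplasma gondii numbers, read through their beta-galactosidase reporter with a colour substrate. Concentration: 10 µM. Higher reads as fewer parasites (inferred from which compounds were picked for retests). Size under these conditions: about 67,000 compounds, about 260 of them at 50% or above in at least one test.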
ClpP1P2: 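ClpP1P2, Mycobacterium tuberculosis (UniProt P9WPC5 and UniProt P9WPC3). Protease assay of ClpP1P2, read by the AMC dye that it sets free. Compounds at 50 µM. Higher reads as stronger inhibition, judged from the few compounds that gave an IC50. Most other retested compounds had strongly negative values. Of about 69,000 compounds tested this way, about 10 (0.015%) reached 50% or more in at least one test.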
T. brucei: 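Whole-parasite assay of Trypanosoma brucei over 72 hours; the read-out is not stated. Concentration: 30 µM. The record gives no direction; compounds that gave an IC50 in retests scored well above the rest, so higher reads as stronger inhibition. Values scatter widely below zero; nearly all retest evidence comes from the higher of the two concentrations used. About 64,000 compounds were tested under these conditions; 1.5% (about 940) showed 50% or more at least once.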
Leishmania in macrophages: 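Cell assay of Leishmania donovani living inside macrophages; the read-out is not stated. Compounds at 30 µM. The record gives no direction; compounds that gave an IC50 in retests scored well above the rest, so higher reads as stronger inhibition. Size under these conditions: about 69,000 compounds, about 1,000 of them at 50% or above in at least one test.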

Results are given as percent effect. How 0% and 100% were set is not recorded. Most values in the screen are low, and negative values occur. This is an unselected part of the compounds tested.

For CC(=O)N1C(CN2CCCC2)C[C@@H]2CN(C(=O)c3ccoc3)CC[C@@H]21 (stereo partly shown) the result was LiHisRS: 1.923%; ClpP1P2: 11.72%. COCCc1noc(CN2CC(n3nc(C)cc3C)C2)n1 read LiHisRS: 17.09%; Toxoplasma: 39.83%; ClpP1P2: 10.36%; Leishmania in macrophages: 28.25%. CCn1ncc2c1C(COC)CN(S(=O)(=O)N(C)C)C2.O=C(O)C(F)(F)F (stereo not shown) gave Toxoplasma: 10.04%; T. brucei: 2.769%; Leishmania in macrophages: -16.06%. For CC(C)NC(=O)NC[C@H]1OC[C@@H](NCc2ccccc2O)[C@@H]1O the result was LiHisRS: 19.44%; Toxoplasma: -0.7389%; ClpP1P2: -11.25%; T. brucei: -1.732%; Leishmania in macrophages: -4.258%. With CC(=O)N1CCC2(CC1)COC(COCc1ccccn1)C2.O=C(O)C(F)(F)F (stereo not shown) the screen gave Toxoplasma: 2.315%; T. brucei: -172.1%; Leishmania in macrophages: -9.694%. With [H][C@]12CCCN(S(=O)(=O)c3ccc(Cl)s3)[C@@]1([H])CN(C(C)=O)C2 the screen gave Toxoplasma: -7.042%; T. brucei: -21.88%; Leishmania in macrophages: -12.32%. Cn1cnc(S(=O)(=O)N2CCSC3(CCCCC3)C2)c1 read LiHisRS: 4.819%; Toxoplasma: 0%; ClpP1P2: -11.67%; T. brucei: -40.33%; Leishmania in macrophages: -30.94%. For Cc1ccc(NC(=O)C2CSCN2C(=O)c2cnccn2)c(C)c1 (stereo not shown) the result was LiHisRS: 42.55%; Toxoplasma: -11.8%; ClpP1P2: 2.708%; T. brucei: -21.39%; Leishmania in macrophages: 11.85%.

CNC(=O)C1(C)CCCN1Cc1cnn(C)c1C (stereo not shown) read LiHisRS: 7.092%; Toxoplasma: 8.85%; ClpP1P2: -19.28%; Leishmania in macrophages: 15.45%. For Cc1[nH]n(-c2ccccc2)c2nnc(N)c1-2 the result was LiHisRS: 23.29%; Toxoplasma: -6.827%; ClpP1P2: -4.451%; T. brucei: -41.16%; Leishmania in macrophages: 9.888%. For CCCN(C)CCC(=O)N1CCCC1Cn1cccn1 (stereo not shown) the result was LiHisRS: 13.56%; Toxoplasma: 1.022%; ClpP1P2: 2.241%; Leishmania in macrophages: 5.143%. Result for Cc1cc(C(=O)N2CCN(C(=O)CC(C)C)[C@@H]3CS(=O)(=O)C[C@@H]32)no1 was LiHisRS: 13.33%; ClpP1P2: -4.149%. [H][C@@]12CN(C(=O)NCC)C[C@]1([H])OCC(=O)N2C(C)C gave Toxoplasma: 0.1239%; T. brucei: -40.39%; Leishmania in macrophages: -17.52%. COc1ccc(CCN(C)CCS(=O)(=O)c2ccc(Cl)cc2)cc1OC gave LiHisRS: -6.306%; Toxoplasma: 4.205%; ClpP1P2: -5.563%; T. brucei: 8.948%; Leishmania in macrophages: 7.861%. COc1ccccc1OC1CCN(Cc2cnc(N(C)C)nc2)CC1 read LiHisRS: 19.05%; Toxoplasma: -6.556%; ClpP1P2: 8.301%; T. brucei: 59.89%; Leishmania in macrophages: 3.534%. CCn1c(C)nnc1SCCNC(=O)c1sc(C(C)C)nc1C read LiHisRS: 17.2%; Toxoplasma: 5.757%; ClpP1P2: 2.853%; T. brucei: -11.22%; Leishmania in macrophages: 13.44%.

Cc1ccc(S(=O)(=O)NCC2COCc3c(C)nnn3C2)cc1F (stereo not shown) read LiHisRS: 9.091%; Toxoplasma: 2.438%; ClpP1P2: 3.602%; T. brucei: 28.19%; Leishmania in macrophages: 23.21%. For CCn1nc(C)c2ncnc(NCC(=O)N3CCOCC3)c21 the result was LiHisRS: 11.65%; Toxoplasma: -1.076%; ClpP1P2: 3.626%; T. brucei: 42.64%; Leishmania in macrophages: 13.04%. For CN(C(=O)c1ccc2c(c1)nc(N1CC[C@H](O)C1)n2C)C1CCSCC1 the result was LiHisRS: 12.39%; Toxoplasma: -31.92%; ClpP1P2: -0.5787%; T. brucei: -131.6%; Leishmania in macrophages: 17.11%. CCO[C@H]1CC[C@H]2[C@H]1OCCN2CCOCc1ccccc1 read LiHisRS: 2%; ClpP1P2: 6.609%. CO[C@@H](C(=O)NC1CCOCC1)c1ccccc1 read LiHisRS: 16.44%; Toxoplasma: -4.85%; ClpP1P2: 12.21%; T. brucei: -37.27%; Leishmania in macrophages: 24.61%. With NC(=O)CSCC(=O)NC1(c2cccc(Cl)c2)CC1 the screen gave LiHisRS: 10.11%; Toxoplasma: 17.1%; ClpP1P2: -2.624%; T. brucei: 2.762%; Leishmania in macrophages: 46.73%. Cc1noc(C)c1CN1CCO[C@H]2CN(Cc3cccnc3)C[C@H]21 gave LiHisRS: 2.655%; ClpP1P2: 1.459%. Cc1nn(C)c(N(C)C)c1CNCc1ccccc1CN(C)C read LiHisRS: 10.81%; Toxoplasma: 0.05624%; ClpP1P2: 14.2%; T. brucei: -5.519%; Leishmania in macrophages: 35.27%.

Result for COC(=O)NCc1ccc(NC(=O)CC2=CCCCC2)cc1 was LiHisRS: 11.97%; Toxoplasma: 0.2387%; ClpP1P2: -11.68%; T. brucei: -7.704%; Leishmania in macrophages: 28.71%. [H][C@]12CC[C@](O)(CC1)C(CN1CCOCC1)N2C(=O)c1ccco1 (stereo partly shown) read Toxoplasma: -57.76%; T. brucei: -6.512%; Leishmania in macrophages: 5.999%. Result for Cc1cc(CN2CCc3nn(C(C)C)c(=O)cc3C2)no1 was LiHisRS: 26.92%; Toxoplasma: -1.036%; ClpP1P2: -5.254%; T. brucei: 13.8%; Leishmania in macrophages: -13.87%. With Cc1cccc(C(=O)N2CCC3(CC(C(=O)N(C)C(C)C)=NO3)C2)c1 (stereo not shown) the screen gave LiHisRS: 15.96%; Toxoplasma: -15.18%; ClpP1P2: 4.875%; T. brucei: -37.35%; Leishmania in macrophages: 21.68%.